In the supplement of paper PMC12067093, “Discovery and optimisation of a covalent ligand for TRIM25 and its application to targeted protein ubiquitination” (Chemical Science, 2025):
The other results are listed elsewhere or left out.

Amino acid sequences for entries named in this document (tags omitted). A change or cut given only in a name is not applied to a line headed by its entry.
UniProt O60701: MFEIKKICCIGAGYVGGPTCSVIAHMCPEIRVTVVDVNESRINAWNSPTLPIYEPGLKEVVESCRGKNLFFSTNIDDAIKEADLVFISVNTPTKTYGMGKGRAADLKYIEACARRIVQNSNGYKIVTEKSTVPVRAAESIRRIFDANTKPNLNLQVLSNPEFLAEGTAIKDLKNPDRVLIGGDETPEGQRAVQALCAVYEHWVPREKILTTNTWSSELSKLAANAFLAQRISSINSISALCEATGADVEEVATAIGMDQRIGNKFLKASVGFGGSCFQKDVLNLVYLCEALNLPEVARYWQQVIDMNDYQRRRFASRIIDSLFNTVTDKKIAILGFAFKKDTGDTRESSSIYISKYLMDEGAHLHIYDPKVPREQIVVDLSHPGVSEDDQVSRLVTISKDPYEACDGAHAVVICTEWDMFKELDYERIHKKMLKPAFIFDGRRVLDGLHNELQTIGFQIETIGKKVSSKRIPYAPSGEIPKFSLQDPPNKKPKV
UniProt P31930: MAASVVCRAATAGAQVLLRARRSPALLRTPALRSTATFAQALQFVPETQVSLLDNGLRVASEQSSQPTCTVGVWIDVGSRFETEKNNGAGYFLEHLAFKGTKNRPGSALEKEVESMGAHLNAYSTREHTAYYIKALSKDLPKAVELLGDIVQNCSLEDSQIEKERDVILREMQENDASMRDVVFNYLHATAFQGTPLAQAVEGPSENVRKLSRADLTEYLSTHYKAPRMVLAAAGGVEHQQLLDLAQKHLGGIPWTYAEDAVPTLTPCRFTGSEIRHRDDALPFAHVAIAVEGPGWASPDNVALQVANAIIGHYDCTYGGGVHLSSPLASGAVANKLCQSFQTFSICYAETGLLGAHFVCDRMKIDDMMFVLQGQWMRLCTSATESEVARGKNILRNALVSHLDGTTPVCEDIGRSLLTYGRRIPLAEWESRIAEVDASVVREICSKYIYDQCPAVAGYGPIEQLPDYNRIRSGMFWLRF
UniProt Q96T88: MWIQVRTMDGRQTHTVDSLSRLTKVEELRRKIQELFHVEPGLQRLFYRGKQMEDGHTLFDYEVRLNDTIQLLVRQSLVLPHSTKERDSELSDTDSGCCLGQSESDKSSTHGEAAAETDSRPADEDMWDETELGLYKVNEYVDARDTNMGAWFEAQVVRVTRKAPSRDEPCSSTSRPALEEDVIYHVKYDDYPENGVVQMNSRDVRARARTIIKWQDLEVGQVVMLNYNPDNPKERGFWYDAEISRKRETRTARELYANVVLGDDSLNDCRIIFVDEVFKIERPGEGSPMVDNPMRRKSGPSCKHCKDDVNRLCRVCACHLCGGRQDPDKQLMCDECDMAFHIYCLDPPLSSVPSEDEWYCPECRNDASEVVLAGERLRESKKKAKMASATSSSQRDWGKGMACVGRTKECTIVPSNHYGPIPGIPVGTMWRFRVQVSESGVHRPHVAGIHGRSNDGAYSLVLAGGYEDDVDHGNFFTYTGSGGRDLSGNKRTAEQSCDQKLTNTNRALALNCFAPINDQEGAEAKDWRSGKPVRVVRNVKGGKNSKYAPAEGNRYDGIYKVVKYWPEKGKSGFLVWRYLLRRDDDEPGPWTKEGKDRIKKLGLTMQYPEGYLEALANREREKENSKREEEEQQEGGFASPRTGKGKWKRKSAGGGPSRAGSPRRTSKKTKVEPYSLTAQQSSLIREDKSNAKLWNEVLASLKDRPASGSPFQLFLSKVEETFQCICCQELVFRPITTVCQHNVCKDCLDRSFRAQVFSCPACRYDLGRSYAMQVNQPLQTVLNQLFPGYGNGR
UniProt P10746: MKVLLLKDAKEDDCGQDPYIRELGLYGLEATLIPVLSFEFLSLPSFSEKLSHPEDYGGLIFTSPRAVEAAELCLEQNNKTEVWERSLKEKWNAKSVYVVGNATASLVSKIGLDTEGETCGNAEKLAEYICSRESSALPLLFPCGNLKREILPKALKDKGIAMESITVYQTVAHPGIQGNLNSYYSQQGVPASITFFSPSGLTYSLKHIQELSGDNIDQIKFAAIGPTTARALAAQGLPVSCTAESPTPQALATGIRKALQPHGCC
UniProt Q9Y5T5, whole entry, looked up: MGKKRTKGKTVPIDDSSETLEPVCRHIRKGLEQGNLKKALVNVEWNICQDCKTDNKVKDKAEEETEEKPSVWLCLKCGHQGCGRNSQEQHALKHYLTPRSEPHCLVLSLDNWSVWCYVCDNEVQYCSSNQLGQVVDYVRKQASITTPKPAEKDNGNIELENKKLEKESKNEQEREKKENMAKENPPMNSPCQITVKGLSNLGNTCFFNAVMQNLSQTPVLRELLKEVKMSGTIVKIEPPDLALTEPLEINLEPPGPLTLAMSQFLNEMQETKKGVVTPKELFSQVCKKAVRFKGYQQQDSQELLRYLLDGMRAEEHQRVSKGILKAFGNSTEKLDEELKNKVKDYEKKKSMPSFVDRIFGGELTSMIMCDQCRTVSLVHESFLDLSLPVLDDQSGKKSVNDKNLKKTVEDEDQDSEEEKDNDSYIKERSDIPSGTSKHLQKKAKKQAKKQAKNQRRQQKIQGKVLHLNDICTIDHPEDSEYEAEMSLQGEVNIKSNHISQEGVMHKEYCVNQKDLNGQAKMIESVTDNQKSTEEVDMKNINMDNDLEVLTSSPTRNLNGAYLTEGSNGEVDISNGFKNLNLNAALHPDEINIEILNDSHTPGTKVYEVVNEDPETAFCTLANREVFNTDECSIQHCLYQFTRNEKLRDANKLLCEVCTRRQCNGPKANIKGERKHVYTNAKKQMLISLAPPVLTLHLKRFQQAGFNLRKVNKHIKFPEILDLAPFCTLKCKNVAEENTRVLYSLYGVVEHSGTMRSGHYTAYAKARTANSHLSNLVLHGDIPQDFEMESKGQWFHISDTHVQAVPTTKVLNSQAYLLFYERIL
UniProt O94874: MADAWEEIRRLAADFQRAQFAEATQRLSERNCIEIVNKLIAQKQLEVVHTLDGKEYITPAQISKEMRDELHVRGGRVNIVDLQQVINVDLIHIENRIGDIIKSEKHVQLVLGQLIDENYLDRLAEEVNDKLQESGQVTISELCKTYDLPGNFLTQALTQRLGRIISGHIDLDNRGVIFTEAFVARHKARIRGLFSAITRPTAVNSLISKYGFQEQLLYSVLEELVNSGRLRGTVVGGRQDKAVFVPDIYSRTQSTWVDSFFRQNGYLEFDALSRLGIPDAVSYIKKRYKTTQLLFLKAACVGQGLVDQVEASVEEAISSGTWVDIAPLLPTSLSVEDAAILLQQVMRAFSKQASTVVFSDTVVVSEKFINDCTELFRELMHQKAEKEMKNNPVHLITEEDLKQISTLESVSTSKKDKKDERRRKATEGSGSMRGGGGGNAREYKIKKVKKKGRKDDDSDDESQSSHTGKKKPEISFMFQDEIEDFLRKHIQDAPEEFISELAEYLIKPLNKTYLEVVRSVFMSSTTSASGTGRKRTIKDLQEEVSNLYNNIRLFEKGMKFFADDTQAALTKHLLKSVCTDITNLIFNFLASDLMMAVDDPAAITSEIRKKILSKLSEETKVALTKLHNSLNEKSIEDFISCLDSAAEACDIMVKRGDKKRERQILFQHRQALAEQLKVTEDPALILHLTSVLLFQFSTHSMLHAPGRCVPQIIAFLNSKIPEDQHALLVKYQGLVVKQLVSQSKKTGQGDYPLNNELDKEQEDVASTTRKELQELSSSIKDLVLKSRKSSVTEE
UniProt Q9NYU2: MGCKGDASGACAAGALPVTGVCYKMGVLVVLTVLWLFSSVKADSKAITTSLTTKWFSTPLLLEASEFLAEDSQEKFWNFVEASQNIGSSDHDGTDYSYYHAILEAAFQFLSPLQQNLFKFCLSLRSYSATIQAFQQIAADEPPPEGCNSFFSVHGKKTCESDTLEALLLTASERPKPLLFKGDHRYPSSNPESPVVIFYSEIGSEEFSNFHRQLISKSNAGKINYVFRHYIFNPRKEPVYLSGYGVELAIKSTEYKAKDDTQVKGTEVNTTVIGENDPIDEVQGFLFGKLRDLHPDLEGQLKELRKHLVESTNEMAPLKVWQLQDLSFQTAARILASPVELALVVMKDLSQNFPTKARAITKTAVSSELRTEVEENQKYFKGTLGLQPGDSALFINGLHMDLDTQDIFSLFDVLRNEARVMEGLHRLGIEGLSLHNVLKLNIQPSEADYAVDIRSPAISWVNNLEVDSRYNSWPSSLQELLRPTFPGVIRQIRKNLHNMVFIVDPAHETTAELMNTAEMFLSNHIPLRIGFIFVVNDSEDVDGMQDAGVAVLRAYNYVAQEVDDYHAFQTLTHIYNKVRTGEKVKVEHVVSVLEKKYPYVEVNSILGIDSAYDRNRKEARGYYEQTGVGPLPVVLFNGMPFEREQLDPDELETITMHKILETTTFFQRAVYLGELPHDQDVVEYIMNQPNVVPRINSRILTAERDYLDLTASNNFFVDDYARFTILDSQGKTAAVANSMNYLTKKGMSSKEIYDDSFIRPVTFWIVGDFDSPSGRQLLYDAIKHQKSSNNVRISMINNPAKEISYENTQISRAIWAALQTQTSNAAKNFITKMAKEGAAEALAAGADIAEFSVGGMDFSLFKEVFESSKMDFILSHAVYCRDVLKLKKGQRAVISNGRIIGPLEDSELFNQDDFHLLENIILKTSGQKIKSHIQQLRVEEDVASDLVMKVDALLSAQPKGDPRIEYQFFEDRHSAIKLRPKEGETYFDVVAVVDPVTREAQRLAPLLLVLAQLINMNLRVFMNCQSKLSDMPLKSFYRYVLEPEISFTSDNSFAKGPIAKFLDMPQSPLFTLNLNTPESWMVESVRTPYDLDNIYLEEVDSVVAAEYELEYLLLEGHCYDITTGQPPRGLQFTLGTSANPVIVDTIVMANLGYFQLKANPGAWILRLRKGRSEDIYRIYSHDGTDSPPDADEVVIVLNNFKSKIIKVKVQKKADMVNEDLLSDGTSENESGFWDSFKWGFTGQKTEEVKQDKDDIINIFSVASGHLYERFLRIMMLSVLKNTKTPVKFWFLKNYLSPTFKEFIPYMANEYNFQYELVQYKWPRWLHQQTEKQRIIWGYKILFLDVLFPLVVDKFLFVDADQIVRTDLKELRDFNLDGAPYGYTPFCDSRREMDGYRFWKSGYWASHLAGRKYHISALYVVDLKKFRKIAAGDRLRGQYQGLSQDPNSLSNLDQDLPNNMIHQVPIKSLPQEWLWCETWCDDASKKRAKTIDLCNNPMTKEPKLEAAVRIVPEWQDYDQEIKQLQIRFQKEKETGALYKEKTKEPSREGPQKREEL
UniProt P54578: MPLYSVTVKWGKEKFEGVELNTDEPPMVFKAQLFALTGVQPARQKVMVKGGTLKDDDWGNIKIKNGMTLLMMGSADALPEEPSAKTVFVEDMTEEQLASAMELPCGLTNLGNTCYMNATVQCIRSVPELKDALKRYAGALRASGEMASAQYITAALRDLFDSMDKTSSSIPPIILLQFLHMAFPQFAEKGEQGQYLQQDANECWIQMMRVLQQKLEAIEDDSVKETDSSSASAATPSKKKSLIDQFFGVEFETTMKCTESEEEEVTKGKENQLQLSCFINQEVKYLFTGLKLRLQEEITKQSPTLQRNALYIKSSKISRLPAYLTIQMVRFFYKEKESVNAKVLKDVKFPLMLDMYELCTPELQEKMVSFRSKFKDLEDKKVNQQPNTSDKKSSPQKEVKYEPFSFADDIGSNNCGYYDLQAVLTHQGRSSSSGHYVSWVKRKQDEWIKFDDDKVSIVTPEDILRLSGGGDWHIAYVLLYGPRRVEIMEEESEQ
UniProt Q96PU4: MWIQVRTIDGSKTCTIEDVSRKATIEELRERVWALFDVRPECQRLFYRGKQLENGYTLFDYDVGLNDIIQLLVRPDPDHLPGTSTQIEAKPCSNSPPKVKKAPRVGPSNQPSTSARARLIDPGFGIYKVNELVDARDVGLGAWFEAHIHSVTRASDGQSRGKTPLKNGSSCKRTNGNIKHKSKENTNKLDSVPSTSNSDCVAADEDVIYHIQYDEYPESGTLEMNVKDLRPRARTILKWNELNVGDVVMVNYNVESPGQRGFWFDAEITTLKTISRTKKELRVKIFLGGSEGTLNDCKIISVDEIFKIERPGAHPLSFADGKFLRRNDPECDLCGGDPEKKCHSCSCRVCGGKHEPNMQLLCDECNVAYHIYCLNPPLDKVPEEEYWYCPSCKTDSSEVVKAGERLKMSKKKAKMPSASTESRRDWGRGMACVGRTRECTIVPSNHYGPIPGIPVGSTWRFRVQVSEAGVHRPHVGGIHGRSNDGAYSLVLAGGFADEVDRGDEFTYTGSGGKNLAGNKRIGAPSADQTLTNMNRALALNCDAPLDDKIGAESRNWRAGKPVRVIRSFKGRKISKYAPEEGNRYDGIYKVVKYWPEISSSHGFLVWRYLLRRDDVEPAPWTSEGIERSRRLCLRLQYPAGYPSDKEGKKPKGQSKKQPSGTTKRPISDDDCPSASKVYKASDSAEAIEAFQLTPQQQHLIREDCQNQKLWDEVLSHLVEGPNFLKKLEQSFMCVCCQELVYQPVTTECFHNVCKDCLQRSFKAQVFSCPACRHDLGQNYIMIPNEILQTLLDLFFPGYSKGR

compound: CC1Cc2ccccc2N1C(=O)C1CCCN(C1)C(=O)CCl (mixture of isomers) [TRIM25 ligand 11 (diastereomer mixture)]; assay: probe-labelled cysteine peptide fold change vs DMSO (competition) (log2 fold change); higher = less target engagement (more negative = stronger competition); conditions: 10 µM; THP-1; incubation time: 4 h
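Further: competitive chemoproteomic profiling in live THP-1 cells with an iodoacetamide desthiobiotin (IA-DTB) probe, comparing probe-labelled peptide intensities in compound-treated cells against DMSO-treated controls.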

Target | probe-labelled cysteine peptide fold change
UGDH_O60701_9+20_ICCIGAGYVGGPTCSVIAHMCPEIR (UniProt O60701) | -0.00335
USP7_Q93009_702_SLNYCGHIYTPISCK (UniProt Q93009) | -0.105
USP13_Q92995_231_ENLWLNLTDGSVLCGK (UniProt Q92995) | -0.0761
UHRF1BP1L_A0JNW5_1235_HYLCNRPVGSDQK (UniProt A0JNW5) | -0.0118
UQCRC1_P31930_453_YIYDQCPAVAGYGPIEQLPDYNR (UniProt P31930) | 0.0471
UHRF1_Q96T88_497_RTAEQSCDQK (UniProt Q96T88) | -0.0136
UROS_P10746_143_ESSALPLLFPCGNLKR (UniProt P10746) | -0.448
USP16_Q9Y5T5_24_TVPIDDSSETLEPVCR (UniProt Q9Y5T5) | -0.101
UFL1_O94874_708_CVPQIIAFLNSK (UniProt O94874) | 0.0278
USP4_Q13107_649_QPLPDEFGSSPLEPGACNGSR (UniProt Q13107) | -0.297
UBXN6_Q9BZV1_210_INCLEGTHEFFEAIGFQK (UniProt Q9BZV1) | 0.0136
URI1_O94763_268_NTNVNAMHQVTDSHTPCHK (UniProt O94763) | 0.0292
USP16_Q9Y5T5_726_FPEILDLAPFCTLK (UniProt Q9Y5T5) | -0.0714
UGGT1_Q9NYU2_159_KTCESDTLEALLLTASERPKPLLFK (UniProt Q9NYU2) | -0.447
UGGT1_Q9NYU2_1475+1479_SLPQEWLWCETWCDDASK (UniProt Q9NYU2) | -0.161
USP40_Q9NVE5_832_MGSSLGLCLGK (UniProt Q9NVE5) | -0.0517
USP37_Q86T82_538_AEELEYSCEK (UniProt Q86T82) | 0.188
UGDH_O60701_20_ICCIGAGYVGGPTCSVIAHMCPEIR (UniProt O60701) | 0.139

Target | probe-labelled cysteine peptide fold change
UROS_P10746_241_ALAAQGLPVSCTAESPTPQALATGIRK (UniProt P10746) | -0.0739
UPF1_Q92900_657_SILIDESTQATEPECMVPVVLGAK (UniProt Q92900) | 0.0986
UFL1_O94874_641_SIEDFISCLDSAAEACDIMVK (UniProt O94874) | -0.154
UFL1_O94874_649_SIEDFISCLDSAAEACDIMVK (UniProt O94874) | 0.0306
USP14_P54578_203_GEQGQYLQQDANECWIQMMR (UniProt P54578) | 0.0111
USP48_Q86UV5_514_WLDESTPTKPIDNHACLCSHDK (UniProt Q86UV5) | -0.142
UBR7_Q8N806_82_QALYACSTCTPEGEEPAGICLACSYECHGSHK (UniProt Q8N806) | 0.182
UHRF1_Q96T88_410_ECTIVPSNHYGPIPGIPVGTMWR (UniProt Q96T88) | 0.0855
UNC13B_O14795_1352_QCAVLDLALDTIK (UniProt O14795) | 0.0673
USP20_Q9Y2K6_8_DLCPHLDSIGEVTKEDLLLK (UniProt Q9Y2K6) | -0.12
UBR7_Q8N806_182_HLGAIPPESGDFQEMVCQACMK (UniProt Q8N806) | -0.00955
UCHL5_Q9Y5K5_9_TGNAGEWCLMESDPGVFTELIK (UniProt Q9Y5K5) | -0.21
UHRF2_Q96PU4_541_ALALNCDAPLDDK (UniProt Q96PU4) | -0.341
UHRF2_Q96PU4_704_ASDSAEAIEAFQLTPQQQHLIREDCQNQK (UniProt Q96PU4) | -0.17
URB2_Q14146_478_LFEEVLGVICRPAAEALR (UniProt Q14146) | 0.102
USP11_P51784_468+471_STLVCPDCGNVSVTFDPFCYLSVPLPISHKR (UniProt P51784) | -0.0479
USP14_P54578_277_ENQLQLSCFINQEVK (UniProt P54578) | -0.0118
USP19_O94966_656+659_LVCPVCAK (UniProt O94966) | 0.00149
